Experimental data taken from patent US9623262B2, “Methods and systems for determining the distribution of radiation dose and response” (priority 2013, dated 2017).

Tested on: V79 cells
Experiment: Cellular uptake by flow cytometry (mean fluorescence intensity, lognormal fit)
Assay type: cell-based, Chinese hamster
Conditions: for slope of net MFI versus extracellular drug concentration, low concentrations: daunomycin <0.6 μmol/L, doxorubicin <1 μmol/L; for slope of net MFI versus extracellular drug concentration, high concentrations: daunomycin >0.6 μmol/L, doxorubicin above 1 μmol/L

SMILES	slope of net MFI versus extracellular drug concentration, low concentrations	slope of net MFI versus extracellular drug concentration, high concentrations
COc1cccc2c1C(=O)c1c(O)c3c(c(O)c1C2=O)C[C@@](O)(C(C)=O)C[C@@H]3O[C@H]1C[C@H](N)[C@H](O)[C@H](C)O1 [daunomycin]	5922 (μmol/L)^−1	2480 (μmol/L)^−1
COc1cccc2c1C(=O)c1c(O)c3c(c(O)c1C2=O)C[C@@](O)(C(=O)CO)C[C@@H]3O[C@H]1C[C@H](N)[C@H](O)[C@H](C)O1 [doxorubicin]	61 (μmol/L)^−1	40 (μmol/L)^−1
